The assay addresses GST-EspE3 (Escherichia coli (avian pathogenic, strain AE81)). As to the kind of experiment: affinity purification with mass spectrometry; GST pull-down: 125 ug GST-EspE3 (bait) held on GST agarose, 200 ug CTE cell lysate protein (prey), 4 C overnight; eluate on SDS-PAGE, silver stain, bands by HPLC and MS; compared with controls without bait and without prey; only the target purified.

No constants are given. Whether binding was seen depends on the method and setting. In cells and extracts the contact can be indirect. A yes stands for co-enrichment or nearness to the bait. Other partners may have been found.

B1: SEM3A (protein, UniProt Q90607 23-772)
chain: QHVKNNVPRLKLSYKEMLESNNIVNFNGLANSSSYHTFLLDEERSRLYVGAKDHIFSFNLVNIKEYQKIVWPVSHSRRDECKWAGKDILRECANFIKVLKTYNQTHLYACGTGAFHPMCTYIEVGSHPEDNIFRMEDSHFENGRGKSPYDPKLLTASLLVDGELYSGTAADFMGRDFAIFRTLGHHHPIRTEQHDSRWLNDPRFISAHLIPESDNPEDDKIYFFFRENAIDGEHTGKATHARIGQICKNDFGGHRSLVNKWTTFLKARLICSVPGPNGIDTHFDELQDVFLMNSKDPKNPIVYGVFTTSSNIFKGSAVCMYSMTDVRRVFLGPYAHRDGPNYQWVPYQGRVPYPRPGTCPSKTFGGFDSTKDLPDEVITFARSHPAMYNPVFPINSRPIMIKTDVDYQFTQIVVDRVDAEDGQYDVMFIGTDIGTVLKVVSIPKETWHELEEVLLEEMTVFREPTVISAMKISTKQQQLYIGSATGVSQLPLHRCDVYGKACAECCLARDPYCAWDGSSCSRYFPTAKRRTRRQDIRNGDPLTHCSDLQHHDNPSGQTLEEKIIYGVENSSTFLECSPKSQRAIVYWQFQKQNDDHKVEIKVDDRMIRTEQGLLLRSLQRRDSGIYFCHAVEHGFIQTLLKVTLEVIDTDHLEELLHKEEDADASKTKDATNSMTPSQKIWYRDFMQLINHPNLNTMDEFCEQVWKRDRKQRRQRPANAQVNTNKWKHLQENKKGRNRRTHEFERAPRSV
As to B1, the binding entry is given as “binds”.

(Values after publication PMC10463865.)
